Measured values from article PMC9657785.

The chains behind the UniProt entries cited, without tags or fusion partners. Where a name states a change or a piece, a line headed by the entry shows the natural chain unless it says otherwise.
UniProt Q07812: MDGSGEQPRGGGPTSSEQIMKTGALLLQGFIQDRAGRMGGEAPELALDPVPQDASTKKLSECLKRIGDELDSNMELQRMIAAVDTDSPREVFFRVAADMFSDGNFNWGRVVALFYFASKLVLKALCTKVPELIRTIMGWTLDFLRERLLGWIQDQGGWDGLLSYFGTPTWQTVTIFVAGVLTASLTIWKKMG
UniProt O75317: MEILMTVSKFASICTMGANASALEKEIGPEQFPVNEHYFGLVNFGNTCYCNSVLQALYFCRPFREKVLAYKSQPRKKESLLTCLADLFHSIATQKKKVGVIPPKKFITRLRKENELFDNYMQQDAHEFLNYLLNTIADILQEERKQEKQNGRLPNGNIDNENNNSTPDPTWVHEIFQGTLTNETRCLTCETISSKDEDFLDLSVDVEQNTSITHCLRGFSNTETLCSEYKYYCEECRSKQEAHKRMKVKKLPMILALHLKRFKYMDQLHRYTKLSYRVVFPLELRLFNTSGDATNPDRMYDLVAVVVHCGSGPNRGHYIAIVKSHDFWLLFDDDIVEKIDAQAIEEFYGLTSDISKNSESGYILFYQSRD

Target: GST-Bax (pGEX-4T-3-Bax) (human (cDNA from HeLa cells)) (UniProt Q07812)
Test: pull-down; GST-Bax from E. coli BL21 (DE3) as bait; bound protein detected by Western blotting; source of USP12 not stated

ubiquitin-specific protease 12 (USP12), as used in the immunoprecipitation and GST pull-down (from UniProt O75317 1-370) (enzyme)
binding: binds

Results are given in words; binding and its absence hold for the method and conditions named. Binding seen in cells or lysates may run through a third protein. Binding calls can cover weak binding; strength is not graded here.
